In paper PMC9537944, “eIF4G1 N-terminal intrinsically disordered domain is a multi-docking station for RNA, Pab1, Pub1, and self-assembly” (Frontiers in Molecular Biosciences, 2022) one finds binding data, which are given here for two substances.

Sequences of proteins named here, by UniProt entry; tags and fusion partners are left off. A change or cut given only in a name is not applied to a line headed by its entry.
UniProt P39935: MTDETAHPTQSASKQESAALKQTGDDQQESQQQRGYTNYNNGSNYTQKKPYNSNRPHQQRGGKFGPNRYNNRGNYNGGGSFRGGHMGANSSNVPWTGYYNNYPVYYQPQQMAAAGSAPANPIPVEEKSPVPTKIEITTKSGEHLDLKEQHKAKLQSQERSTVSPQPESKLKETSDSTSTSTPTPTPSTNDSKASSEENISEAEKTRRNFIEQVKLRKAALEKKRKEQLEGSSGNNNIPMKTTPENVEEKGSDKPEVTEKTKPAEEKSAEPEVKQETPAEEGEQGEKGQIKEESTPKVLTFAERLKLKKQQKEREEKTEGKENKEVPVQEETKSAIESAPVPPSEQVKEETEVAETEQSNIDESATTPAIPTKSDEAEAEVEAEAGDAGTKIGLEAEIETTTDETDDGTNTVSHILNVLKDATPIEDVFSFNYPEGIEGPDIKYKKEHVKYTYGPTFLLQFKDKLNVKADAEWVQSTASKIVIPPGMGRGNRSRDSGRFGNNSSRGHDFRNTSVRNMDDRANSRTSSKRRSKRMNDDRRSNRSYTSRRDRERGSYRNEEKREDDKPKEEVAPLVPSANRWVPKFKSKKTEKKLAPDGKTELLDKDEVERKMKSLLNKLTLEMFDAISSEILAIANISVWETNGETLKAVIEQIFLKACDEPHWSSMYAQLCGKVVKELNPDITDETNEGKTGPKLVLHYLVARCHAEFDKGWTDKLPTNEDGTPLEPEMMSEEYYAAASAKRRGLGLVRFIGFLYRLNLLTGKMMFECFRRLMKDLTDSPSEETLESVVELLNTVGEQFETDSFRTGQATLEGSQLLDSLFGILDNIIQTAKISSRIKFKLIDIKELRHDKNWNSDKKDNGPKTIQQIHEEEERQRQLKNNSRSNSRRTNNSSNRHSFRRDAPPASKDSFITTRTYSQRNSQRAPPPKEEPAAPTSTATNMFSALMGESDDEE

The target in the assay is T1, Pub1 RRM3 (Saccharomyces cerevisiae) (UniProt P32588).
T1 sequence: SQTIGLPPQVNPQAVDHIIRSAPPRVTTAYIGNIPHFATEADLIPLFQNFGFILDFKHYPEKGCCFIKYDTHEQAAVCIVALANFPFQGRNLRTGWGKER
The assay is described as follows: NMR titration; 1H-15N HSQC of 15N-labelled Pub1 RRM3 titrated with eIF4G1 peptides, eIF4G1 constructs and mutants, or Pab1 RRM12; NMR buffer (25 mM potassium phosphate pH 6.5, 25 or 150 mM NaCl, 1 mM DTT, 10% D2O), 25°C; both purified.

Results are given in words; binding and its absence hold for the method and conditions named. Binding can be weak; no strength is given. Where a sequence is shown, tags or fusion partners need not be part of it.

Consider “eIF4G1_(1-184) ΔBOX1 (from UniProt P39935) (domain or fragment)”, for which the binding result is “binds weakly”.

Consider “eIF4G1_(1-184) ΔBOX2 (from UniProt P39935) (domain or fragment)”, for which the binding entry was “binds”.
